Measurements published in PMC5481839.
No constants are given. Whether binding was seen depends on the method and setting. In cells and extracts the contact can be indirect. Some binding calls cover weakened binding; strength is not graded here.

The chains behind the UniProt entries cited, without tags or fusion partners.
UniProt Q8TEK3: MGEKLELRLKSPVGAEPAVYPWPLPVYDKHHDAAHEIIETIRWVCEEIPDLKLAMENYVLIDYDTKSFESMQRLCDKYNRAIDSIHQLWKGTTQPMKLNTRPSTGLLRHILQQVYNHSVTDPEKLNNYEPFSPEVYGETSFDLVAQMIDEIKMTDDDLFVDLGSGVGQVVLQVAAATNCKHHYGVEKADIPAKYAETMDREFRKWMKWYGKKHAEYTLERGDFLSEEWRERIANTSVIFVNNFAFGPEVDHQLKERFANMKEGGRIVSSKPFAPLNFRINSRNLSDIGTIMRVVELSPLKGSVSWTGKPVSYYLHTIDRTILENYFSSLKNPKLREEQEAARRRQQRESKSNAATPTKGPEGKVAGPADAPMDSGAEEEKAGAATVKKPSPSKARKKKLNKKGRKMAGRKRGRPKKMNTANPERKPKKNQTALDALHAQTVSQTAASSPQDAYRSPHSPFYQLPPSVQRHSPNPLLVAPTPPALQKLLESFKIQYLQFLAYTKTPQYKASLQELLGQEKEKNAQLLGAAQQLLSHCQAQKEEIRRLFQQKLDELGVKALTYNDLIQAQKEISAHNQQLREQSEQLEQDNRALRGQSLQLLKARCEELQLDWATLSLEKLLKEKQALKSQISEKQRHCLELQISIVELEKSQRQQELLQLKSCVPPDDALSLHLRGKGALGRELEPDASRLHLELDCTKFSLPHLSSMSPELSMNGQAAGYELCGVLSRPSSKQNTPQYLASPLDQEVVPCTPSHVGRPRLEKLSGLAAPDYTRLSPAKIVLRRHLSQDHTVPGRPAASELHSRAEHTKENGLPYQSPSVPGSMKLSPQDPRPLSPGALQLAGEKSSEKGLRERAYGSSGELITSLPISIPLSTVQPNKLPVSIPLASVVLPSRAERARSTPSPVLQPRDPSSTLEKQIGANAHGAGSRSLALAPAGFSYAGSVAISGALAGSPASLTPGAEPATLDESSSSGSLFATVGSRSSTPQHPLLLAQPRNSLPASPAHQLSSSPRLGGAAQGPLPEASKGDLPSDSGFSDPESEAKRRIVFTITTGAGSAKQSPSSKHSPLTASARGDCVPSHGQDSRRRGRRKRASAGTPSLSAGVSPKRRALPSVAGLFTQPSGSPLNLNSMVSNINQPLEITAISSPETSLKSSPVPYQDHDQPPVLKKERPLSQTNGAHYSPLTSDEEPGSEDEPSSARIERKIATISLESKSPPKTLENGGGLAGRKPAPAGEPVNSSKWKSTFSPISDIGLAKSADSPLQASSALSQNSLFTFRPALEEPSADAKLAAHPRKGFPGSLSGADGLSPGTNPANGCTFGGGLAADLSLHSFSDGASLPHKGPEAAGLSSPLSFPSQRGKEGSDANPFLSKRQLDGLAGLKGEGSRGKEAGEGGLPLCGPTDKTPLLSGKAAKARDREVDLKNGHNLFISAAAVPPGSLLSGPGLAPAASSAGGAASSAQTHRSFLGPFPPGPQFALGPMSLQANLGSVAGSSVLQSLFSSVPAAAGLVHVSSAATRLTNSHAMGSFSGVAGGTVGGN
UniProt P35222: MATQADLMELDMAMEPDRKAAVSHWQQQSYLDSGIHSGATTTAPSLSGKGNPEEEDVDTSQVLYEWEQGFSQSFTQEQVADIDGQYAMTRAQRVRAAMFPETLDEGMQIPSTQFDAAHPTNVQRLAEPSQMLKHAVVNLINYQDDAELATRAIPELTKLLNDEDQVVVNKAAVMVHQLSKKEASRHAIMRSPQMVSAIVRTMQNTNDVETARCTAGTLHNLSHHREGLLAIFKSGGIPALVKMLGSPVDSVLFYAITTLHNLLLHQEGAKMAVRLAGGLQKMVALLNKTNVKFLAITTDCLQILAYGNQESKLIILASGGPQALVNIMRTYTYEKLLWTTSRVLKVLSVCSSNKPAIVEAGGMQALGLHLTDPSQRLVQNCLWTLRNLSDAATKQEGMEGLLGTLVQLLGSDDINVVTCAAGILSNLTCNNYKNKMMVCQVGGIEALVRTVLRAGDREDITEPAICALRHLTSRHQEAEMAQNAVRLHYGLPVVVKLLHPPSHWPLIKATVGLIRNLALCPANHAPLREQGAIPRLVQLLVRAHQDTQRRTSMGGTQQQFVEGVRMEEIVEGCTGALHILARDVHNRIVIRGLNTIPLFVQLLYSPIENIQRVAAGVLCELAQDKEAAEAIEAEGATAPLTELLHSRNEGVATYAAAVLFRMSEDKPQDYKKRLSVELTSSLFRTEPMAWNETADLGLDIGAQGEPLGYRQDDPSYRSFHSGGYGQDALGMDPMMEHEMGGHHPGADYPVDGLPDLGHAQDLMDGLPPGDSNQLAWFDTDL

Key:
[1] = target: Disruptor of telomeric silencing 1-like (DOT1L) (human (endogenous in human articular chondrocytes)) (UniProt Q8TEK3); assay: co-IP; Pierce Co-Immunoprecipitation Kit; anti-DOT1L antibody immobilised on the column; 100 μg of lysate proteins of human articular chondrocytes incubated overnight at 4 °C; elution at pH 3; Western blot; cells with or without Wnt activation by LiCl
[2] = target: Disruptor of telomeric silencing 1-like (DOT1L) (human (endogenous in human articular chondrocytes)) (UniProt Q8TEK3); assay: condition: only cells treated with the DOT1L inhibitor EPZ-5676; co-IP; as a1, but human articular chondrocytes treated with the DOT1L inhibitor EPZ-5676

binding [1]: binds | binding [2]: no binding
Substance: β-catenin (from UniProt P35222 1-781)
